Data published in the supplement of paper PMC10849652.
This is one part of the list.

Protein sequences, listed by entry. Tags and fused reporters are not part of them. Lines headed by an entry give the natural chain unless they say otherwise; changes in a name come on top.
UniProt O94830: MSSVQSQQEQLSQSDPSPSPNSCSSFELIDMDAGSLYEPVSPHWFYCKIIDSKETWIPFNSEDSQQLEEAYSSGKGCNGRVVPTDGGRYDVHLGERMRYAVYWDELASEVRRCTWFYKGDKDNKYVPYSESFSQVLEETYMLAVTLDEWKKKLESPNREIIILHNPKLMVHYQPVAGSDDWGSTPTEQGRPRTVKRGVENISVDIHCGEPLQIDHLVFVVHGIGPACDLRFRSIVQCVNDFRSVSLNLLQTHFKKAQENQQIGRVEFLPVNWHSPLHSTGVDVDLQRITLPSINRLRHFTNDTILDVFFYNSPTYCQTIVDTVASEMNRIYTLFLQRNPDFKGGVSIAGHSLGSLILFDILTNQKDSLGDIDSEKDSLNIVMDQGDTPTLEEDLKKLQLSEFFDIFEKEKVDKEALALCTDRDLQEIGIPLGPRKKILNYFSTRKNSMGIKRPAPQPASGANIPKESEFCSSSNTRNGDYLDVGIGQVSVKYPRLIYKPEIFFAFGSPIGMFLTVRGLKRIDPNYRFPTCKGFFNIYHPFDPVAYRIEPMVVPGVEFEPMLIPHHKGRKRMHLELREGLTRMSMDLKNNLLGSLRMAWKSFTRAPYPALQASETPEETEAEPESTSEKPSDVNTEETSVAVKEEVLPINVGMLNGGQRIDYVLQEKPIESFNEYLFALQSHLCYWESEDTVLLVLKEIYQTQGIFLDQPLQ
UniProt Q8IWF6: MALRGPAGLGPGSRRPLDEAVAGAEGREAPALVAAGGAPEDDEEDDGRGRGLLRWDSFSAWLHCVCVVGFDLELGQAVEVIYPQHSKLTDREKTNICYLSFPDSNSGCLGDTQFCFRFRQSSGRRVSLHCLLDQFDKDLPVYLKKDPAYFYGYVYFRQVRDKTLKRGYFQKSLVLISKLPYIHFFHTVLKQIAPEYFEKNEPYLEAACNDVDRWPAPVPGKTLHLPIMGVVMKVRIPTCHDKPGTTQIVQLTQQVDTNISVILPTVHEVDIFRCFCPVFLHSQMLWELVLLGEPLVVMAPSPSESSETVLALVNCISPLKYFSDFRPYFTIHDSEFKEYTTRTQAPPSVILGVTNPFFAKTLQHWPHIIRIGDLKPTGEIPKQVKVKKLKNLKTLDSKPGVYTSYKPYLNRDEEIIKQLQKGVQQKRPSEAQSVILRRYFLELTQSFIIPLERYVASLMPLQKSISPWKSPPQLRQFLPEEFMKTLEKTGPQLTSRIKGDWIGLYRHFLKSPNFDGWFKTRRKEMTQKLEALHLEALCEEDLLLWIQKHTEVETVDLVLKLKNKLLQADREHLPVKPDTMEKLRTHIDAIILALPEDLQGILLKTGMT
UniProt Q96JB1: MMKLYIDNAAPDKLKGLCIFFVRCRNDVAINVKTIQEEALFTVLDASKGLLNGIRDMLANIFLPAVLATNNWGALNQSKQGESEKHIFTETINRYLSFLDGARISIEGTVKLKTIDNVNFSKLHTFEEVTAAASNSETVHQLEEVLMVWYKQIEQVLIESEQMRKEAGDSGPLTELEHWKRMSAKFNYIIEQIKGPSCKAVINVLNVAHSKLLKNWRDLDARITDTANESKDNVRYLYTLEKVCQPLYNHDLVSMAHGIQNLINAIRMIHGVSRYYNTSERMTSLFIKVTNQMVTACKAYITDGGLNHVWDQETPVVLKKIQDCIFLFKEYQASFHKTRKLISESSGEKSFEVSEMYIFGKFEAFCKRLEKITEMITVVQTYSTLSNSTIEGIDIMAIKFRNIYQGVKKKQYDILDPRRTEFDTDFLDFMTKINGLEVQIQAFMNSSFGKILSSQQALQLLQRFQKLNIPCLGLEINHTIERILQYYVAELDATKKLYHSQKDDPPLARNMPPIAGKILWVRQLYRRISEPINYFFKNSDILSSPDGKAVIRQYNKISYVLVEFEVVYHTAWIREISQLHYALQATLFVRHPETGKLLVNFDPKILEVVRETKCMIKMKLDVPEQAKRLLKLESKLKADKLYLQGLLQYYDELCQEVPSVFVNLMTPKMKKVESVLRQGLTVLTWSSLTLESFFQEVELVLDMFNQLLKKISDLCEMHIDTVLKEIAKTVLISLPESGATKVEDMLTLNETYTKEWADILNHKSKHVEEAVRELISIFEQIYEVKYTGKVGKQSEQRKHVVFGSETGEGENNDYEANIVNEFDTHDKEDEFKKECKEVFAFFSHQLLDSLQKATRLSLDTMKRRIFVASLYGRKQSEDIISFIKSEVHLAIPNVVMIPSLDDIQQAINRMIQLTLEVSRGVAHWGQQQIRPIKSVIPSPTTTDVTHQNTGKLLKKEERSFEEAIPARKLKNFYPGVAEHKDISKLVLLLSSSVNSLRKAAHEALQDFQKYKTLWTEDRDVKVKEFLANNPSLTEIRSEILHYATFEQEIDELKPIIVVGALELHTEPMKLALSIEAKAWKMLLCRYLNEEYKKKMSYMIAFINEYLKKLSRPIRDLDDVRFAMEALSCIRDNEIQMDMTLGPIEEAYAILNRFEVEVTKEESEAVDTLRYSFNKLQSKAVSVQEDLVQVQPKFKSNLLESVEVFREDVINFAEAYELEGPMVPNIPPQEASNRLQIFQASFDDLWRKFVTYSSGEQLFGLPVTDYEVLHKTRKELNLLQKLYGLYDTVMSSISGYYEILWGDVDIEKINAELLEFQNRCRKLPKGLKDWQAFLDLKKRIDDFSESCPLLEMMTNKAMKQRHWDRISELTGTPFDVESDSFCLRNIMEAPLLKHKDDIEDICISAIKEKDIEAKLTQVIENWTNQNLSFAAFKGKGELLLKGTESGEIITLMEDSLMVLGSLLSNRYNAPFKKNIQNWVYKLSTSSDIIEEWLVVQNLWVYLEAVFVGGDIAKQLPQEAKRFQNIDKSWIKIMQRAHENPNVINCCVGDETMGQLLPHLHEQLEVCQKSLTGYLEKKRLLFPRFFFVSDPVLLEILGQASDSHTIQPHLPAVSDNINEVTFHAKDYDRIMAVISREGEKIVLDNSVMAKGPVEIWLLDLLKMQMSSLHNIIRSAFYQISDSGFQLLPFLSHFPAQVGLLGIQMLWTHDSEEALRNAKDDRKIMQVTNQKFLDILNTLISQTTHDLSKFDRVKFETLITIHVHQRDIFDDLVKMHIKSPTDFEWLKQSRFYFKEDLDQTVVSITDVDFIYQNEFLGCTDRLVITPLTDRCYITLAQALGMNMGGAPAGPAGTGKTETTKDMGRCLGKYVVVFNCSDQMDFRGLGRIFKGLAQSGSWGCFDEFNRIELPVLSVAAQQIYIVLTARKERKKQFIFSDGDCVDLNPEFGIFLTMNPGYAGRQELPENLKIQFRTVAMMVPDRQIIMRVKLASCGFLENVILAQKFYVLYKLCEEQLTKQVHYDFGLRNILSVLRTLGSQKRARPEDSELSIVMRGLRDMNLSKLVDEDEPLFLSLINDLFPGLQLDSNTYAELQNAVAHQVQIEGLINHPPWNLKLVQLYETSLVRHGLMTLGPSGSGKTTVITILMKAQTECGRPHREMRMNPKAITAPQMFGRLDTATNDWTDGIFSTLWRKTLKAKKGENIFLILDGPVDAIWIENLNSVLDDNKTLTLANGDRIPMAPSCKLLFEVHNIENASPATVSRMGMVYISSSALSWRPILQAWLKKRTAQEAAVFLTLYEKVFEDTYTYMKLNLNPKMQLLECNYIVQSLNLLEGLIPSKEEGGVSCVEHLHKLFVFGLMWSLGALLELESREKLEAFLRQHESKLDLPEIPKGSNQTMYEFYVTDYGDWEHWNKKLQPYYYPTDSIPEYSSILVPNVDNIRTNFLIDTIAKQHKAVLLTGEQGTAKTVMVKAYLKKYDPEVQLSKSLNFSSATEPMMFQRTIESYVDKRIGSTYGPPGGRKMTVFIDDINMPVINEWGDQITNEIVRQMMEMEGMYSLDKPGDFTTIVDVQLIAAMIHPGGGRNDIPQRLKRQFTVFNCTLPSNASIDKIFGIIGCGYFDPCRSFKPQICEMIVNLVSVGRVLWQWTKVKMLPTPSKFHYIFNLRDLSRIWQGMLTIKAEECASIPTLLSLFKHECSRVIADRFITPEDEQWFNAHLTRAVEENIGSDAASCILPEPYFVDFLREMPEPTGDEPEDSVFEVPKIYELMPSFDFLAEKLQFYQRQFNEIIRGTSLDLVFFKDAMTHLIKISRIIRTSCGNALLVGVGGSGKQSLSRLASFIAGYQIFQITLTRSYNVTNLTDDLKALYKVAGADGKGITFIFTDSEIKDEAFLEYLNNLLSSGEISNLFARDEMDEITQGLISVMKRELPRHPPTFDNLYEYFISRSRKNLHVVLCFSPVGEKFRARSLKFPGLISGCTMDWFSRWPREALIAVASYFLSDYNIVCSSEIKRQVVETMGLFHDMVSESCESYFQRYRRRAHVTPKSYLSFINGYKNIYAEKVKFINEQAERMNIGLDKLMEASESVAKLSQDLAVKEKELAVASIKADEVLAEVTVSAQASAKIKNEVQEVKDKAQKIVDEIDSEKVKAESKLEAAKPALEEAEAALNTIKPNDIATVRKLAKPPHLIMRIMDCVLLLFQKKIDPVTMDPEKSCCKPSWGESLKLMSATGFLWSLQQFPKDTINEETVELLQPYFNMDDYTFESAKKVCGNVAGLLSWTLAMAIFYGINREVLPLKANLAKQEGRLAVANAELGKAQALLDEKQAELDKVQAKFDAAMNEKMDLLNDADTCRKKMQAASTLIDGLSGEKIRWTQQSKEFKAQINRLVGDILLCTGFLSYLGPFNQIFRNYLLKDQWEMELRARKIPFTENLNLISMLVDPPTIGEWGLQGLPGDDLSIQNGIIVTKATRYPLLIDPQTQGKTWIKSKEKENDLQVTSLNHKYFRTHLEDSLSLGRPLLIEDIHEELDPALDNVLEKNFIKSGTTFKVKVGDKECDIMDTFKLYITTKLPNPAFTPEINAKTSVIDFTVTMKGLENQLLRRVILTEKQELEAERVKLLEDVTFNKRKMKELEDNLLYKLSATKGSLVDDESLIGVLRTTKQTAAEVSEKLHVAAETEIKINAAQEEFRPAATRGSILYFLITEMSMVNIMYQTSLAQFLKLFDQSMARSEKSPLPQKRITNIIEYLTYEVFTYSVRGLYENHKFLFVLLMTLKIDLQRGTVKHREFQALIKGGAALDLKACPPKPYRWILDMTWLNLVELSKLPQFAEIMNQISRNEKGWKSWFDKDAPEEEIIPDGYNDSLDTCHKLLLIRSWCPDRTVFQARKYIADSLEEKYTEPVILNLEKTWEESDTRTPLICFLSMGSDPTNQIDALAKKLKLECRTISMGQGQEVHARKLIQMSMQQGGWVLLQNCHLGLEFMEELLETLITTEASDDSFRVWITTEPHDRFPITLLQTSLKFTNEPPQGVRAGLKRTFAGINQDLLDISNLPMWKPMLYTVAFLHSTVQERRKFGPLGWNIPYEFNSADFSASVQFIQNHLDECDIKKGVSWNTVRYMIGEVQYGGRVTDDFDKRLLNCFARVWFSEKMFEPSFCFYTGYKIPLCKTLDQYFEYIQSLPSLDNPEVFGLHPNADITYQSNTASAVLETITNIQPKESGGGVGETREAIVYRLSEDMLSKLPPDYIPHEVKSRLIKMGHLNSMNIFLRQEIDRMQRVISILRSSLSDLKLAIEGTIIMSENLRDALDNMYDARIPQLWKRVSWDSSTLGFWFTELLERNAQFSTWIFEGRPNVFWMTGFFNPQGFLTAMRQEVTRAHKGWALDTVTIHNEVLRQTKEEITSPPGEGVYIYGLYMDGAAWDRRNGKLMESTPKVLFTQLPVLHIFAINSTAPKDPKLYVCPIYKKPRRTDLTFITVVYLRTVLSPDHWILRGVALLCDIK
UniProt Q6ICB0: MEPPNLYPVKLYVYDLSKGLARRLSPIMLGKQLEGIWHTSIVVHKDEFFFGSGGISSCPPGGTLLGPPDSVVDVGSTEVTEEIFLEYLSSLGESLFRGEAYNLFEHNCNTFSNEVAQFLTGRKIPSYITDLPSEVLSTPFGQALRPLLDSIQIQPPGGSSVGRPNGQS
UniProt Q86SQ9: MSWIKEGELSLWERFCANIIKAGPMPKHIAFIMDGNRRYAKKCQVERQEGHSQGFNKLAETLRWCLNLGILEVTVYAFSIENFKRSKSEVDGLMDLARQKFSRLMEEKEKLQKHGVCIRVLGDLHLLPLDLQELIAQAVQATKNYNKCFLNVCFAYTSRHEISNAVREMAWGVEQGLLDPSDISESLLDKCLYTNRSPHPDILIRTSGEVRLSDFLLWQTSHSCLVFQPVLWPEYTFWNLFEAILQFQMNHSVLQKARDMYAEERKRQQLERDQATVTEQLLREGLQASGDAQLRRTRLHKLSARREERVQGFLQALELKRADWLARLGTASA
UniProt O43583: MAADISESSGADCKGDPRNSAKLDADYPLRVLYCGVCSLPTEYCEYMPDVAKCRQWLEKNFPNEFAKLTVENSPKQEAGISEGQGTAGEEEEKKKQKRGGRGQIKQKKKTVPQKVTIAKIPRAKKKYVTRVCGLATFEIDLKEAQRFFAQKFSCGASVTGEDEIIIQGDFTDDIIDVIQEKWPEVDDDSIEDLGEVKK

Legend:
Test in all cases: log2 fold change, soluble protein after heating vs DMSO (PISA); higher = thermal stabilisation; K562 cells, 10 uM, 30 min; active = over 0.2 and 3.5 SD of the protein, either way, in both replicates (recomputed)
[1] = compound: C1=CC=C(C=C1)[C@H](COC2=CC3=C(C=C2)NC(=O)N3)NC(=O)C4=CC=CN(C4=O)CC5=CC(=C(C=C5)F)F
How it was run: (§1)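 Thermal stability values are relative to control samples and come from duplicates. They are expressed as log2 fold changes. For measurement, K562 cells (2×10^6 cells/mL) received 10 μM compound for 30 min, and aliquots were heated for 3 min over 48°C-58°C, pooled, and extracted at 4°C in PBS with 0.5% NP-40. Soluble protein, the supernatant after 21,000xg for 90 min, was quantified by TMTpro 16plex LC-MS/MS with equalised channel sums.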

[2] = compound: CC1=C(SC2=C1C(=N[C@H](C3=NN=C(N32)C)CC(=O)N)C4=CC=C(C=C4)Cl)C
How it was run: as §1

[3] = compound: CC1=C2C(=CC=C1)N=C(N(C2=O)C3=CC=CC=C3C)CN4C=NC5=C(N=CN=C54)N
How it was run: as §1

[4] = compound: Cc1sc2c(c1C)C(c1ccc(Cl)cc1)=N[C@@H](CC(=O)OC(C)(C)C)c1nnc(C)n1-2
How it was run: as §1

[5] = compound: c1ccc([C@@H]2C[C@H]2NC2CCNCC2)cc1
How it was run: as §1

Measured: log2 fold change

DDHD2 (UniProt O94830)
inactive: [1] -0.004 | [2] 0.025 | [3] 0.113 | [4] -0.041 | [5] -0.01

DKC1 (UniProt O60832)
inactive: [1] 0.032 | [2] -0.098 | [3] -0.047 | [4] 0.063 | [5] 0.055

DNAH11 (UniProt Q96DT5)
inactive: [1] 0.047 | [2] -0.387 | [3] 0.089 | [4] -0.021 | [5] 0.092

DERA (UniProt Q9Y315)
inactive: [1] 0.048 | [2] -0.013 | [3] 0.039 | [4] 0.016 | [5] 0.001

DDX59 (UniProt Q5T1V6)
inactive: [1] 0.033 | [2] 0.006 | [3] 0.12 | [4] -0.059 | [5] 0.056

DES (UniProt P17661)
inactive: [1] 0.164 | [2] 0.334 | [3] 0.025 | [4] 0.021 | [5] 0

DENND6A (UniProt Q8IWF6)
inactive: [1] 0.106 | [2] 0.006 | [3] 0.083 | [4] -0.062 | [5] -0.081

DDOST (UniProt P39656)
inactive: [1] 0.018 | [2] -0.009 | [3] -0.078 | [4] -0.022 | [5] 0

DHRS11 (UniProt Q6UWP2)
inactive: [1] -0.029 | [2] 0.095 | [3] 0.043 | [4] -0.038 | [5] -0.037

DHODH (UniProt Q02127)
inactive: [1] 0.025 | [2] 0.014 | [3] 0.031 | [4] -0.001 | [5] 0.049

DNAH8 (UniProt Q96JB1)
inactive: [1] -0.001 | [2] -0.047 | [3] 0.164 | [4] -0.021 | [5] 0.009

DLGAP4 (UniProt Q9Y2H0)
inactive: [1] 0.002 | [2] 0.045 | [3] 0.057 | [4] -0.013 | [5] 0.026

DDX49 (UniProt Q9Y6V7)
inactive: [1] 0.021 | [2] -0.056 | [3] -0.117 | [4] 0.056 | [5] 0.044

DNAJA2 (UniProt O60884)
inactive: [1] -0.002 | [2] 0.004 | [3] 0.054 | [4] -0.022 | [5] -0.013

DNAAF5 (UniProt Q86Y56)
inactive: [1] -0.051 | [2] -0.148 | [3] -0.195 | [4] 0.071 | [5] -0.019

DGCR2 (UniProt P98153)
inactive: [1] 0.074 | [2] -0.048 | [3] -0.03 | [4] -0.005 | [5] -0.059

DESI1 (UniProt Q6ICB0)
inactive: [1] 0.094 | [2] 0.091 | [3] 0.021 | [4] -0.264 | [5] -0.06

DHDDS isoform 2 (UniProt Q86SQ9)
inactive: [1] 0 | [2] 0.018 | [3] 0.077 | [4] 0.061 | [5] 0.011

DDX23 (UniProt Q9BUQ8)
inactive: [1] 0.141 | [2] -0.229 | [3] -0.218 | [4] 0.171 | [5] 0.047

DGKZ (UniProt Q13574)
inactive: [1] -0.008 | [2] 0.029 | [3] -0.005 | [4] -0.027 | [5] 0.021

DIAPH1 (UniProt O60610)
inactive: [1] -0.073 | [2] -0.027 | [3] 0.026 | [4] 0.049 | [5] -0.018

DGCR8 (UniProt Q8WYQ5)
inactive: [1] 0.018 | [2] -0.132 | [3] -0.015 | [4] 0.208 | [5] -0.011

DHX16 (UniProt O60231)
inactive: [1] -0.024 | [2] 0.007 | [3] 0.059 | [4] -0.003 | [5] 0.017

DENR (UniProt O43583)
inactive: [1] -0.034 | [2] -0.01 | [3] 0.003 | [4] 0 | [5] 0.019

DDX17 (UniProt Q92841)
inactive: [1] -0.024 | [2] -0.008 | [3] 0.054 | [4] 0.006 | [5] 0.006
